Results on one substance are retold here after doi:10.1101/2024.09.08.611708.

For the test, the target named is T1, mCherry-AtATG8A (A. thaliana) (UniProt Q8LEM4).
T1 sequence: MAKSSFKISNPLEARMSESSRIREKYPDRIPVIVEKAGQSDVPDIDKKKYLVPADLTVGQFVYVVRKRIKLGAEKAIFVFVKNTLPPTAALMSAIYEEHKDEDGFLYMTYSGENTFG
Description: affinity purification with mass spectrometry.

Results are given in words; binding and its absence hold for the method and conditions named. In cells and extracts the contact can be indirect. These calls come from enrichment with a bait or labelling near it, and not all partners need be listed.

Consider AtCESAR2 (endogenous), for which the binding result is “binds”.
